Experimental data reported in article PMC12667520, “SP3 and DEP1 Orchestrate Panicle Architecture by Jointly Regulating APO2 Expression in Rice”.
No constants are given. Whether binding was seen depends on the method and setting. A result given as binding can be weak or reduced; the word gives no strength. Where a sequence is shown, tags or fusion partners need not be part of it. For part of these data: In cells and extracts the contact can be indirect.

T1: FLAG-DEP1 (rice (Oryza sativa)) (UniProt Q67UU9)
T1 sequence: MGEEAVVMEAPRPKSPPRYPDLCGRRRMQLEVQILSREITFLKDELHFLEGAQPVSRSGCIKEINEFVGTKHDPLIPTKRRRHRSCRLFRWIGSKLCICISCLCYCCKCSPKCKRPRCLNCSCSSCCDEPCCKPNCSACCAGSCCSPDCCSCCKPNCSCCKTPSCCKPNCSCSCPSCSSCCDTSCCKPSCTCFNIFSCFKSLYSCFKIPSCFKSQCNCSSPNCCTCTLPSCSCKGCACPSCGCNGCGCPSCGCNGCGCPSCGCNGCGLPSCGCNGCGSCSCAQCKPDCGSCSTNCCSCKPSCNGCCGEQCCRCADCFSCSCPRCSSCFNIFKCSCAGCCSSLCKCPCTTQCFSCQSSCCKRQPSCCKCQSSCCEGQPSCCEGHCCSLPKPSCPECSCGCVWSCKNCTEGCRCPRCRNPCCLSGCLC


Key:
[1] = molecular target: T1, FLAG-DEP1 (rice (Oryza sativa)); test: co-IP; 3xFLAG-DEP1 and 3xHA-SP3 co-expressed in rice protoplasts; extract in 50 mM Tris-HCl pH 7.5, 150 mM NaCl, 0.5% Triton X-100; FLAG beads 4 h at 4 °C; blot with anti-FLAG and anti-HA
[2] = molecular target: cLUC-SP3 (rice (Oryza sativa)); test: split reporter; firefly luciferase complementation imaging (LCI), nLUC and cLUC fusions co-expressed in N. benthamiana leaves, 25 °C for 48 h, 1 mM potassium luciferin
[3] = molecular target: zinc finger DNA-binding domain of SP3 (two-hybrid construct) (rice (Oryza sativa ssp. japonica, Zhonghua 11)); test: two-hybrid; pairwise, Matchmaker system (Clontech), pGADT7 and pGBKT7, yeast AH109, test medium SD/-Leu-Trp-His-Ade
[4] = molecular target: SP3 in vector PVYCE (C-terminal YFP fragment fusion) (rice (Oryza sativa)); test: split reporter; BiFC, PVYCE and PVYNE YFP fragments, rice protoplasts, 12-16 h in the dark, confocal microscopy

binding [2] | Molecule | further results
– | HA-SP3 (rice (Oryza sativa)) | binding [1]: binds
no binding | nLUC-OSH6 (protein, UniProt Q9FP29 1-301) MEDLYSIHPGISRVGGAASEASGVGVVVGGGGGSSSSDLTELMKAQIAGHPRYPTLLSAYIECRKVGAPPEVASLLKEIGRERRAGGGGGGAGQIGVDPELDEFMEAYCRVLVRYKEELSRPFDEAASFLSSIQTQLSNLCSGATSPPATTATHSDEMVGSSDEDQCSGETDMLDIGQEQSSRLADHELKEMLLKKYSGCLSRLRSEFLKKRKKGKLPKDARSALLEWWNTHYRWPYPTEEDKLRLAARTGLDPKQINNWFINQRKRHWKPSDGMRFALMEGVAGGSSGTTLYFDTGTIGP | –
– | DENSE AND ERECT PANICLE1 (DEP1), full length, Gal4 activation domain fusion (DEP1-AD) (protein, UniProt Q67UU9 1-426) MGEEAVVMEAPRPKSPPRYPDLCGRRRMQLEVQILSREITFLKDELHFLEGAQPVSRSGCIKEINEFVGTKHDPLIPTKRRRHRSCRLFRWIGSKLCICISCLCYCCKCSPKCKRPRCLNCSCSSCCDEPCCKPNCSACCAGSCCSPDCCSCCKPNCSCCKTPSCCKPNCSCSCPSCSSCCDTSCCKPSCTCFNIFSCFKSLYSCFKIPSCFKSQCNCSSPNCCTCTLPSCSCKGCACPSCGCNGCGCPSCGCNGCGCPSCGCNGCGLPSCGCNGCGSCSCAQCKPDCGSCSTNCCSCKPSCNGCCGEQCCRCADCFSCSCPRCSSCFNIFKCSCAGCCSSLCKCPCTTQCFSCQSSCCKRQPSCCKCQSSCCEGQPSCCEGHCCSLPKPSCPECSCGCVWSCKNCTEGCRCPRCRNPCCLSGCLC | binding [3]: binds
binds | nLUC-DEP1 (protein, UniProt Q67UU9 1-426) MGEEAVVMEAPRPKSPPRYPDLCGRRRMQLEVQILSREITFLKDELHFLEGAQPVSRSGCIKEINEFVGTKHDPLIPTKRRRHRSCRLFRWIGSKLCICISCLCYCCKCSPKCKRPRCLNCSCSSCCDEPCCKPNCSACCAGSCCSPDCCSCCKPNCSCCKTPSCCKPNCSCSCPSCSSCCDTSCCKPSCTCFNIFSCFKSLYSCFKIPSCFKSQCNCSSPNCCTCTLPSCSCKGCACPSCGCNGCGCPSCGCNGCGCPSCGCNGCGLPSCGCNGCGSCSCAQCKPDCGSCSTNCCSCKPSCNGCCGEQCCRCADCFSCSCPRCSSCFNIFKCSCAGCCSSLCKCPCTTQCFSCQSSCCKRQPSCCKCQSSCCEGQPSCCEGHCCSLPKPSCPECSCGCVWSCKNCTEGCRCPRCRNPCCLSGCLC | –
– | DEP1 in vector PVYNE (N-terminal YFP fragment fusion) (protein, UniProt Q67UU9 1-426) MGEEAVVMEAPRPKSPPRYPDLCGRRRMQLEVQILSREITFLKDELHFLEGAQPVSRSGCIKEINEFVGTKHDPLIPTKRRRHRSCRLFRWIGSKLCICISCLCYCCKCSPKCKRPRCLNCSCSSCCDEPCCKPNCSACCAGSCCSPDCCSCCKPNCSCCKTPSCCKPNCSCSCPSCSSCCDTSCCKPSCTCFNIFSCFKSLYSCFKIPSCFKSQCNCSSPNCCTCTLPSCSCKGCACPSCGCNGCGCPSCGCNGCGCPSCGCNGCGLPSCGCNGCGSCSCAQCKPDCGSCSTNCCSCKPSCNGCCGEQCCRCADCFSCSCPRCSSCFNIFKCSCAGCCSSLCKCPCTTQCFSCQSSCCKRQPSCCKCQSSCCEGQPSCCEGHCCSLPKPSCPECSCGCVWSCKNCTEGCRCPRCRNPCCLSGCLC | binding [4]: binds
no binding | DEP1^Gγ-like (domain or fragment, UniProt Q67UU9 24-107) GRRRMQLEVQILSREITFLKDELHFLEGAQPVSRSGCIKEINEFVGTKHDPLIPTKRRRHRSCRLFRWIGSKLCICISCLCYCC | –
